PubChem BioAssay AID686937 | Drosophila RNAi Screening Center – 2013
The deposit covers about 23,000 reagents; below is a random part of those that have a named target and a result. 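Reduced-secretion tags in replicate 1 do not always agree with the z-scores; no criterion for assigning the tags was given.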 The numbers tell different reagents against one gene apart. Names joined by + are all predicted targets of the reagent. Further read-outs or replicates are left out here. Not given: the amount of reagent.

- Aim: 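Genes in the fly needed for secretion of protein constitutively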 (primary screen)
- Cells: Drosophila S2 cells expressing secreted horseradish peroxidase
- Reagent: long dsRNA against Drosophila genes
- Duration: about 5.5 days (5 days dsRNA, then 12 h reporter induction)
- Conditions: reporter expression induced after 5 days of dsRNA, read 12 h later; inducer not stated
- Detection: 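Chemiluminescent measurement of peroxidase in the medium 12 h after reporter induction, following 5 days of dsRNA, given as a z-score per plate; higher means more secretion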
- Scale: z-score: higher = more reporter secreted into medium

no.	gene knocked down	reagent	z-score, replicate 1
1	stol (stolid)	1	0.04
2	Sxl (Sex lethal)	1	0.49
3	Sxl (Sex lethal)	2	0.23
4	Sxl (Sex lethal)	3	0.04
5	CG4789	1	0.1
6	Ing3 (Inhibitor of growth family, member 3)	1	-4.21
7	CG15657	1	0.23
8	CG1208	1	0.5
9	CG2962	1	0.58
10	RpL30 (Ribosomal protein L30)	1	-1.76
11	dpr12 (defective proboscis extension response 12)	1	-3.13
12	dpr12 (defective proboscis extension response 12)	2	0.25
13	dpr12 (defective proboscis extension response 12)	3	0.57
14	CG8671	1	-0.02
15	CG8671	2	0.25
16	alphaKap4 (alpha Karyopherin-4)	1	0.27
17	Mcm7 (Minichromosome maintenance 7)	1	0.09
18	CG17272	1	-0.13
19	CG14135	1	0.45
20	CG13339	1	0.16
21	RpL34b (Ribosomal protein L34b)	1	-1.62
22	ap (apterous)	1	0.48
23	Nplp2 (Neuropeptide-like precursor 2)	1	0.07
24	CG6330	1	0.22
25	CG17807	1	0.22
26	Orai	1	0.3
27	Orai	2	0.45
28	CG9673	1	0.25
29	emc (extra macrochaetae)	1	-0.96
30	MAPk-Ak2 (MAP kinase activated protein-kinase-2)	1	0.05
31	CG17177	1	0.55
32	hoka	1	0.57
33	CG14742	1	0.67
34	CG7458	1	-2.97
35	CG7458	2	-0.02
36	CG11630	1	0.02
37	l(2)10685 (lethal (2) 10685)	1	0.25
38	Mps1 (Monopolar spindle 1)	1	0.06
39	mRpL23 (mitochondrial ribosomal protein L23)	1	-0.39
40	Est-6 (Esterase 6)	1	0.35
41	mRpL44 (mitochondrial ribosomal protein L44)	1	-0.29
42	SerT (Serotonin transporter)	1	0.52
43	Takl2 (Tak1-like 2)	1	0.29
44	CG43397 + CG12902	1	0.13
45	CG7884	1	0.4
46	GlnRS (Glutaminyl-tRNA synthetase)	1	0.09
47	CG9192	1	0.45
48	CG8195	1	0.51
49	tctn + B9d2	1	0.45
50	Yp3 (Yolk protein 3)	1	0.4

17 successive entries from above, for reference:
no.	gene knocked down	reagent	z-score, replicate 1
15	CG8671	2	0.25
16	alphaKap4 (alpha Karyopherin-4)	1	0.27
17	Mcm7 (Minichromosome maintenance 7)	1	0.09
18	CG17272	1	-0.13
19	CG14135	1	0.45
20	CG13339	1	0.16
21	RpL34b (Ribosomal protein L34b)	1	-1.62
22	ap (apterous)	1	0.48
23	Nplp2 (Neuropeptide-like precursor 2)	1	0.07
24	CG6330	1	0.22
25	CG17807	1	0.22
26	Orai	1	0.3
27	Orai	2	0.45
28	CG9673	1	0.25
29	emc (extra macrochaetae)	1	-0.96
30	MAPk-Ak2 (MAP kinase activated protein-kinase-2)	1	0.05
31	CG17177	1	0.55

Further entries follow:
no.	gene knocked down	reagent	z-score, replicate 1
51	CycG (Cyclin G)	1	0.29
52	RpS18 (Ribosomal protein S18)	1	-3.82
53	CG6424	1	0.35
54	Rab2	1	0.16
55	CG31689	1	0.05
56	CG5342	1	0.05
57	Grip84 (Gamma-tubulin ring protein 84)	1	0.02
58	CG6985	1	0.04
59	Tab2 (TAK1-associated binding protein 2)	1	-0.03
60	CG32391	1	0.52
61	CG33640	1	0.49
62	CG3764	1	0.22
63	LysRS (Lysyl-tRNA synthetase)	1	0.35
64	Gprk1 (G protein-coupled receptor kinase 1)	1	0.52
65	Gprk1 (G protein-coupled receptor kinase 1)	2	-0.41
66	CG3548	1	0.07
67	Nop60B (Nucleolar protein at 60B)	1	0.22
68	NijA (Ninjurin A)	1	-0.04
69	Gr22d (Gustatory receptor 22d)	1	-0.59
70	CG11069	1	-0.05
71	GluRIA (Glutamate receptor IA)	1	0.47
72	RapGAP1 (Rap GTPase activating protein 1)	1	0.19
73	RapGAP1 (Rap GTPase activating protein 1)	2	0.15
74	RapGAP1 (Rap GTPase activating protein 1)	3	0.3
75	RapGAP1 (Rap GTPase activating protein 1)	4	0.13
76	CG31189	1	0.1
77	ppk7 (pickpocket 7)	1	0.36
78	Saf6 (SAGA factor-like TAF6)	1	0.5
79	Tim23 (Translocase of inner mitochondrial membrane 23)	1	0.09
80	CG5446	1	-1.12
81	Obp58d (Odorant-binding protein 58d)	1	-0.04
82	rdgC (retinal degeneration C)	1	0.64
83	CG18547	1	-0.26
84	CG32104	1	-0.72
85	CG32104	2	0.38
86	Zip99C (Zinc/iron regulated transporter-related protein 99C)	1	0.69
87	CG15145	1	-0.38
88	Src42A (Src oncogene at 42A)	1	0.4
89	Src42A (Src oncogene at 42A)	2	-0.16
90	cact (cactus)	1	-0.03
91	drd (drop dead)	1	0.26
92	drd (drop dead)	2	1.29
93	CG12708	1	0.11
94	upd2 (unpaired 2)	1	0.38
95	RpS5b (Ribosomal protein S5b)	1	0.16
96	CG12310	1	0.24
97	smid (smallminded)	1	0.37
98	Ptp61F (Protein tyrosine phosphatase 61F)	1	0.59
99	betaTub56D (beta-Tubulin at 56D)	1	-1.73
100	Nup93-2 (Nucleoporin 93kD-2)	1	0.21
101	CG30379	1	-0.38
102	BEAF-32 + CG42254 (retired record)	1	0.2
103	Tom70 (Translocase of outer membrane 70)	1	0
104	Ir52d (Ionotropic receptor 52d)	1	0.15
